{"source": "PubChem BioAssay AID1224829 (NIAID, 2016)", "screen": "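Follow-up of TLR4-NF-kappaB regulators using six separate siRNAs for each gene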 (follow-up of hits)", "cell system": "mouse RAW264.7 G9 macrophage reporter cells", "reagents": "single siRNA against mouse genes, 100 nM", "timing": "2 days of siRNA knock-down, then 40 min of LPS before fixing", "challenge": "LPS (Salmonella minnesota R595) at 10 ng/ml", "detection": "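Imaging of GFP-p65 after 40 min of LPS; nuclear over perinuclear ring intensity ratio, scaled to plate median and non-targeting control wells, given as z-score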", "reading the numbers": "p65 translocation z-score: higher = more nuclear NF-kappaB p65 after LPS", "active means": "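Active means the replicate-mean z-score lies beyond plus or minus 2, in either direction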", "calls": "active = changed p65 translocation (either direction); inactive = no clear change", "note": "The deposit covers about 3,800 reagents; shown is a random part of them. 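Calls cover raised and lowered translocation; gene median uses one vendor's three siRNAs; qiagen siRNAs acted more weakly than ambion siRNAs.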 A number with no mark means an inactive call. Reagents against one gene are numbered here. Further read-outs or replicates are left out here."}
{"gene":"Rps6kb1","siRNA no.":1,"siRNA vendor or control pool":"ambion single siRNA","p65 translocation z-score, replicate mean":"-3.59 (active)","p65 translocation z-score, replicate 1":-3.21}
{"gene":"Rps6kb1","siRNA no.":2,"siRNA vendor or control pool":"ambion single siRNA","p65 translocation z-score, replicate mean":-1.56,"p65 translocation z-score, replicate 1":2.22}
{"gene":"Rps6kb1","siRNA no.":3,"siRNA vendor or control pool":"ambion single siRNA","p65 translocation z-score, replicate mean":"-2.48 (active)","p65 translocation z-score, replicate 1":-1.72}
{"gene":"Rps6kb1","siRNA no.":4,"siRNA vendor or control pool":"qiagen single siRNA","p65 translocation z-score, replicate mean":1.68,"p65 translocation z-score, replicate 1":2.45}
{"gene":"Rps6kb1","siRNA no.":5,"siRNA vendor or control pool":"qiagen single siRNA","p65 translocation z-score, replicate mean":-0.235,"p65 translocation z-score, replicate 1":0.0213}
{"gene":"Rps6kb1","siRNA no.":6,"siRNA vendor or control pool":"qiagen single siRNA","p65 translocation z-score, replicate mean":-1.4,"p65 translocation z-score, replicate 1":-2.84}
{"gene":"Rps4l","siRNA no.":1,"siRNA vendor or control pool":"ambion single siRNA","p65 translocation z-score, replicate mean":0.346,"p65 translocation z-score, replicate 1":-3.92}
{"gene":"Rps4l","siRNA no.":2,"siRNA vendor or control pool":"ambion single siRNA","p65 translocation z-score, replicate mean":"-2.67 (active)","p65 translocation z-score, replicate 1":-4.01}
{"gene":"Rps4l","siRNA no.":3,"siRNA vendor or control pool":"ambion single siRNA","p65 translocation z-score, replicate mean":1.24,"p65 translocation z-score, replicate 1":2.73}
{"gene":"Rps4l","siRNA no.":4,"siRNA vendor or control pool":"qiagen single siRNA","p65 translocation z-score, replicate mean":1.68,"p65 translocation z-score, replicate 1":0.881}
{"gene":"Rps4l","siRNA no.":5,"siRNA vendor or control pool":"qiagen single siRNA","p65 translocation z-score, replicate mean":-1.36,"p65 translocation z-score, replicate 1":-2.39}
{"gene":"Rps4l","siRNA no.":6,"siRNA vendor or control pool":"qiagen single siRNA","p65 translocation z-score, replicate mean":"-4.48 (active)","p65 translocation z-score, replicate 1":-4.48}
{"gene":"Nr2f2","siRNA no.":1,"siRNA vendor or control pool":"ambion single siRNA","p65 translocation z-score, replicate mean":"4.18 (active)","p65 translocation z-score, replicate 1":5.04}
{"gene":"Nr2f2","siRNA no.":2,"siRNA vendor or control pool":"ambion single siRNA","p65 translocation z-score, replicate mean":"2.1 (active)","p65 translocation z-score, replicate 1":2.6}
{"gene":"Nr2f2","siRNA no.":3,"siRNA vendor or control pool":"ambion single siRNA","p65 translocation z-score, replicate mean":"-2.71 (active)","p65 translocation z-score, replicate 1":-3.65}
{"gene":"Nr2f2","siRNA no.":4,"siRNA vendor or control pool":"qiagen single siRNA","p65 translocation z-score, replicate mean":1.52,"p65 translocation z-score, replicate 1":1.13}
{"gene":"Nr2f2","siRNA no.":5,"siRNA vendor or control pool":"qiagen single siRNA","p65 translocation z-score, replicate mean":-0.399,"p65 translocation z-score, replicate 1":-0.56}
{"gene":"Nr2f2","siRNA no.":6,"siRNA vendor or control pool":"qiagen single siRNA","p65 translocation z-score, replicate mean":0.841,"p65 translocation z-score, replicate 1":0.303}
{"gene":"Or2y1b","siRNA no.":1,"siRNA vendor or control pool":"ambion single siRNA","p65 translocation z-score, replicate mean":-1.42,"p65 translocation z-score, replicate 1":-2.43}
{"gene":"Or2y1b","siRNA no.":2,"siRNA vendor or control pool":"ambion single siRNA","p65 translocation z-score, replicate mean":"-3.07 (active)","p65 translocation z-score, replicate 1":-4.81}
{"gene":"Or2y1b","siRNA no.":3,"siRNA vendor or control pool":"ambion single siRNA","p65 translocation z-score, replicate mean":"-2.5 (active)","p65 translocation z-score, replicate 1":-2.5}
{"gene":"Or2y1b","siRNA no.":4,"siRNA vendor or control pool":"qiagen single siRNA","p65 translocation z-score, replicate mean":"3.31 (active)","p65 translocation z-score, replicate 1":2.79}
{"gene":"Or2y1b","siRNA no.":5,"siRNA vendor or control pool":"qiagen single siRNA","p65 translocation z-score, replicate mean":-1.09,"p65 translocation z-score, replicate 1":-1.18}
{"gene":"Or2y1b","siRNA no.":6,"siRNA vendor or control pool":"qiagen single siRNA","p65 translocation z-score, replicate mean":-0.801,"p65 translocation z-score, replicate 1":-1.48}
{"gene":"Fgf2","siRNA no.":1,"siRNA vendor or control pool":"ambion single siRNA","p65 translocation z-score, replicate mean":"-2.13 (active)","p65 translocation z-score, replicate 1":-3.72}
{"gene":"Fgf2","siRNA no.":2,"siRNA vendor or control pool":"ambion single siRNA","p65 translocation z-score, replicate mean":"-2.45 (active)","p65 translocation z-score, replicate 1":-1.42}
{"gene":"Fgf2","siRNA no.":3,"siRNA vendor or control pool":"ambion single siRNA","p65 translocation z-score, replicate mean":"-5.15 (active)","p65 translocation z-score, replicate 1":-6.48}
{"gene":"Fgf2","siRNA no.":4,"siRNA vendor or control pool":"qiagen single siRNA","p65 translocation z-score, replicate mean":1.74,"p65 translocation z-score, replicate 1":2.11}
{"gene":"Fgf2","siRNA no.":5,"siRNA vendor or control pool":"qiagen single siRNA","p65 translocation z-score, replicate mean":1.54,"p65 translocation z-score, replicate 1":0.558}
{"gene":"Fgf2","siRNA no.":6,"siRNA vendor or control pool":"qiagen single siRNA","p65 translocation z-score, replicate mean":-1.47,"p65 translocation z-score, replicate 1":-2.39}

Records above whose gene name begins with F or f (6):
{"gene":"Fgf2","siRNA no.":1,"siRNA vendor or control pool":"ambion single siRNA","p65 translocation z-score, replicate mean":"-2.13 (active)","p65 translocation z-score, replicate 1":-3.72}
{"gene":"Fgf2","siRNA no.":2,"siRNA vendor or control pool":"ambion single siRNA","p65 translocation z-score, replicate mean":"-2.45 (active)","p65 translocation z-score, replicate 1":-1.42}
{"gene":"Fgf2","siRNA no.":3,"siRNA vendor or control pool":"ambion single siRNA","p65 translocation z-score, replicate mean":"-5.15 (active)","p65 translocation z-score, replicate 1":-6.48}
{"gene":"Fgf2","siRNA no.":4,"siRNA vendor or control pool":"qiagen single siRNA","p65 translocation z-score, replicate mean":1.74,"p65 translocation z-score, replicate 1":2.11}
{"gene":"Fgf2","siRNA no.":5,"siRNA vendor or control pool":"qiagen single siRNA","p65 translocation z-score, replicate mean":1.54,"p65 translocation z-score, replicate 1":0.558}
{"gene":"Fgf2","siRNA no.":6,"siRNA vendor or control pool":"qiagen single siRNA","p65 translocation z-score, replicate mean":-1.47,"p65 translocation z-score, replicate 1":-2.39}
